In US20050054833A1:
These are yes or no findings as the source states them, for the method shown. Some results given as binding are weak or reduced against the parent protein; the word gives no strength.

Experiments:
human CD23 (human) = target: T1, human CD23 (human) (UniProt P06734); assay: competition assay, FIG. 2
T1 sequence (looked up): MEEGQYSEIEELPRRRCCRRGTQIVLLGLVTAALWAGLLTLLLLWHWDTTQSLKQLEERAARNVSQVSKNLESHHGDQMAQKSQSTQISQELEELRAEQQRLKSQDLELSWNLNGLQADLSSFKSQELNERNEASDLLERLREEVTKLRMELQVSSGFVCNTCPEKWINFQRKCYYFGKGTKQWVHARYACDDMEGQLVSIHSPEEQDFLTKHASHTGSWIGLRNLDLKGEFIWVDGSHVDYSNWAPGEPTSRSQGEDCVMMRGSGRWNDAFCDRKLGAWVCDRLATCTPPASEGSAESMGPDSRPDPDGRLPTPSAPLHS

[1] = target: T2, soluble CD23 purified from the supernatant of human RPMI 8866 cells (human) (UniProt P06734); assay: sandwich ELISA, sCD23 captured by BG-6, hybridoma supernatant
T2 sequence (looked up): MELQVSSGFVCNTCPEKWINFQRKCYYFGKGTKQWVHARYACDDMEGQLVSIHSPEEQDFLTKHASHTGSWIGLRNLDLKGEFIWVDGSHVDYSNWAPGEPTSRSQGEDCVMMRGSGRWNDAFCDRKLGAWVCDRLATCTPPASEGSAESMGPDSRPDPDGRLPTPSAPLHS

[2] = target: T2, soluble CD23 purified from the supernatant of human RPMI 8866 cells (human); assay: ELISA on soluble CD23 captured by BG-6

Measured: binding

B1: primate anti-human CD23 monoclonal antibody 6G5 (antibody, V domains shown)
VH: QLQLQESGPGVVKPSETLSLTCAVSGGSVSSSNWWTWIRQPPGKGLEWIGRISGSGGATNYNPSLKSRVIISQDTSKNQFSLNLNSVTAADTAVYYCARDWAQIAGTTLGFWGQGVLVTVSS
VL: QSAPTQPPSVSGSPGQSVTISCTGTSDDVGGYNYVSWYQHHPGKAPKLMIYDVAKRASGVSDRFSGSKSGNTASLTISGLQAEDEADYYCCSYTTSSTLLFGRGTRLTVLG
binds: all assays above
